This is an account of results in PubChem BioAssay AID1347423 (Functional Genomics Laboratory (NCATS/FGL), 2020).

Out of some 52,000 sequences screened, about 210 (0.4%) were called active.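 Rule for the calls: active = gene whose silencing raises cell survival under the drug, median off-target-corrected z-score across its silencing RNAs 2 or more; inactive = the rest.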 The list shows a part of the results.

This assay is described as follows: Resistance to Poly (ADP-Ribose) Polymerase inhibitor: Gene Identification via Genome-wide siRNA Screen. The conditions noted are these: mouse BRCA2 R2336H ES cells, olaparib, CellTiter-Glo viability; hits give high values. From the text: The role of Poly (ADP-Ribose) Polymerase (PARP) proteins in DNA repair has been elegantly utilized for the synthetic lethality-based treatment of BRCA-deficient tumors by PARP inhibitors. PARP inhibitors are now being used for treatment of BRCA-deficient breast and ovarian cancers. […] While several mechanisms of drug resistance have been identified, majority of these tumors develop drug resistance due to unknown causes. To identified novel regulators of chemo-resistance in BRCA2-mutated cells, we performed a genome wide siRNA library screen. We have found ES cells expressing a hypomorphic allele of BRCA2 to be hypersensitive to PAPP inhibitors (such as olaparib). We used ES cells expressing a mutant allele of BRCA2 that has a single amino acid substitution at position 2336 (arginine to histidine, R2336H). The screen was conducted using an Ambion (Thermo) Silencer Mouse Genome siRNA collection. The library targets 17,575 mouse genes with 3 siRNAs per gene. TET2 (E130014J05Rik) was identified as a top candidate.
Transfections were performed in 384 well plates (Corning 3707). Plates were coated with 0.1% gelatin in H2O overnight at ambient temperature. Gelatin solution was aspirated (BioTek EL406) and siRNAs were printed using a Bravo VPrep liquid handler integrated within a BioCel automation platform (Agilent). Cell viability was measured using CellTiter Glo (Promega). For transfections, […] of serum free media containing Lipofectamine RNAiMax […] was added to wells containing siRNA (0.8pmol). Lipid and siRNA were allowed to complex for 45 min at ambient temperature before addition of 1000 cells in DMEM, 30% FBS to yield final transfection mixtures containing 20 nM siRNA in DMEM, 15% FBS. PARPi (olaparib, AZD2281) was added 48 h post-transfection (500 nM) and viability (CellTiter Glo, Promega) was assayed 72 h later on a PerkinElmer Envision 2104 Multilabel plate reader. Ambion Silencer Select Negative Control #2 was incorporated on all screening plates (16 wells) and the median negative control value on each plate was used for normalization. An siRNA targeting Trp53 was used as a positive control. This control yielded a median protective effect of ~1.9 fold versus negative control throughout the screen. The median absolute deviation (MAD) based z-score was calculated for each siRNA. Genes were then ranked by taking the median value for all siRNAs tested against a given gene. Scores were also adjusted for seed-based off-target effects to help deprioritize likely false positives.
Consider CCAACUUCGAUGCUGAGAGTT against Anxa2, for which the z-score is inactive: -0.64.
As for “GCCUAAGGAGUUUCUGAUATT against 2410015A16Rik”, the z-score is inactive: -0.0616.
As to GGAGAACUUCAAAACUUUUTT against Tbx1, the z-score was inactive: -0.104.
As for GCCUCAAUGGCACUCAAAUTT against Mdc1, the z-score was inactive: 0.141.
Next, GGCAUGUCGAUCUGACCUUTT against Kcnc1: inactive: 0.224.
With GGGAAAAUCCACUUUUAAGTT against Hs2st1, the z-score is inactive: 0.723.
Next, GGGUGGUGUUCCAUGACAGTT against Ubp1: inactive: -0.375.
To GGCAAAGAAGGAGAAAGUATT against Cd209c belongs inactive: -0.492; to “GCAAAACCUACUGCGUGGATT against 2410195B05Rik”, inactive: 0.682.
Consider CCAAUUACCUGAAUAAAGCTT against Epb4.1l5, for which the z-score was inactive: 0.256.
Next, GGUUCUGGAGCAAAUCCACTT against AI326477: inactive: -0.179; GGAAAAGAAAUUUGCUGAUTT against AI313915: inactive: -0.663; GACUCAUUCUGCAAUGAAGTT against Ifna5: inactive: 0.425.
Consider GGUAUUUAAACUCUUGGGATT against Mpdu1, for which the z-score was inactive: -0.0462.
Consider GGAGAAAGCCAAAUUUAACTT against Slc17a6, for which the z-score was inactive: 0.724.
To GCUAAUUCCCUGGCCUCAATT against Tro belongs inactive: 0.273; to GGUGAAGUUGCCAAGAAAGTT against Reg3g, inactive: 0.207; to GGAGUUCAUUAUCUUGGCUTT against Rsad1, inactive: 0.813.
Next, “GGUUGGUGUAUUCUGGCAGTT against 5031400M07Rik”: inactive: -0.0226; GGCUCCAGUCCGUUUUGAATT against Nrarp: inactive: 0.521; “GGUACUGCCAUGUAGGAAATT against A330008L17Rik”: inactive: -0.618.
For the sequence “GGCAGACCCAUAAUUAAUCTT against 2810429K17Rik”, the z-score is inactive: 1.15.
Next, GCUUCAUCUCCUAAAGCCCTT against Ring1: inactive: 0.164; “GCAUUAAAGUGCUGUUCUUTT against 4930527D15Rik”: inactive: 1.08; CCUCACCAAACCUUGUUGATT against Cd300lg: inactive: 0.00582.
To GGAAGACCCACAAAGGCUUTT against Rpl3l belongs inactive: -0.901; to CCAAGUGGUACGACCAUGATT against Gcnt3, inactive: -1.45.
GGAUUUUGUUCCUCAAGAUTT against Pip5k2a: the z-score is inactive: 0.306.
Turning to “GGUACUAAACACCAACUCCTT against B230315M08Rik”, the z-score was active: 1.28.
Take GGAGAGUACAAGGUAUCUUTT against Map3k7ip2: the z-score is inactive: -0.967.
Next, “GGGCAAUCGACUGAGAAUUTT against A530050P17Rik”: inactive: -1.87; CCGAAUUAAGAAAGUGGUUTT against Ap1g1: inactive: 0.917; “CGAAAAUAUGGAUACUACUTT against 1810043M15Rik”: inactive: 0.607.
As to GCUCAUAAAGCUGUAUAAATT against Zik1, the z-score is inactive: -0.513.
To GCGCGACCUUCGAAUGUAATT against Rnf5 belongs inactive: -1.97; to GCGAUUACUGGAGAUAGAGTT against U2af1-rs1, inactive: 1.08.
Next, GGCCAUGCUGAAAGUAUUUTT against Olfr561: inactive: -0.231; GGAUUUACAUUCUCAUUGUTT against Olfr995: inactive: -0.397.
With CGUAUUCCCUAGUUUCAGATT against Kirl2, the z-score is inactive: 0.791.
As for GCACAGCUAAACUUAACUATT against Taz, the z-score was inactive: 0.0413.
Next, GGCAAAAUUUUAUAAGCUGTT against Ttf1: inactive: 0.157.
For the sequence GGUUUUACUGUAGACCUUUTT against Hnrpa1, the z-score is inactive: 0.326.
On to “GGCCAACUCACCUUUCUAGTT against D630023F18Rik”, for which the z-score was inactive: 0.77.
To “GGCAGUAUAAUUCGUUGUATT against 2610528A15Rik” belongs inactive: 0.464; to GGCAGUGAGAGUCACAAGATT against Cdipt, inactive: -0.608; to GGAGGACAGUAGGUGGCAATT against Clp1, inactive: -2.09.
To GGAGCACAUGCUGAAGGAUTT against BC037006 belongs inactive: -1.38.
In the case of CGAUCUGUGCAACAUCCUGTT against Trik, the z-score was inactive: -0.708.
As for GCCUAACUAUGAAACUUCGTT against Ppp1r11, the z-score is inactive: -1.24.
As to “GGCCUUCAGUCAAAUGGGATT against 4921536K21Rik”, the z-score was inactive: -0.0582.
To GGGAGAACUCCUGAUUGACTT against Nnmt belongs inactive: 0.549; to CGUUCAGGAAACUACAAAATT against Mto1, inactive: -0.384; to GCUCAUUGGGAUCAUUGGUTT against Fancd2, inactive: -1.65.
Next, “GCCAGAUCGCUAAAAUCGUTT against 2410166I05Rik”: inactive: 0.194; GCUAAAAGAUCAUUGGAGUTT against Ear10: inactive: 1.24; GGGUGUCUUCAACAAGUACTT against Dnttip1: inactive: -3.43.
On to GGUGUUCAAAAAGUUUAACTT against Zswim1, for which the z-score is inactive: 0.276.
Next, GGAAUCUACCACUUGGUUCTT against Chrdl2: inactive: 0.342.
Next, GGUGUCUUUAUUUAAUAGGTT against Ccng2: inactive: 0.0417; GGGCUUCGGGUUAAGAAGGTT against Tnfrsf5: inactive: -0.773.
On to “GCUCUUGGCAAGGACAAUUTT against A830019P07Rik”, for which the z-score was inactive: -1.58.
Next, GGGAUCAAGUGUUUCGCUGTT against Apbb1: inactive: 0.53.
To “GCUCGUUUGUGUAUAAGGATT against 4930503L19Rik” belongs inactive: -0.122.
Next, “GGAAAAACAGUGCAGAUGGTT against 4931400A14Rik”: inactive: -0.824; “GGCCGAUGUUUAUUCUUUUTT against 4921513O20Rik”: inactive: 0.00235; CCAUAUGAAACUUAUAGCCTT against Nmi: inactive: 1.53.
With GCAAGGUGAUCACUCUCUCTT against Olfr187, the z-score was inactive: 0.249.
Regarding “GCCUUGAUAAUUUUGUAAGTT against A630002K24”, the z-score is inactive: 0.276.
With GGAAAAAAGGAACAAAUGCTT against Pde5a, the z-score is inactive: 1.05.
To CCAACUAUAACUCAGUCACTT against Ebf1 belongs inactive: 0.374; to “GGAAGAGAAGGAGAAUGAATT against 4930424G05Rik”, inactive: -0.0244.
For the sequence “CCUUAAGGAAUGCCAGCAATT against 5930403N24Rik”, the z-score is inactive: -1.01.
Next, GGAAGAGCUGCUGAAAGAGTT against Tekt2: inactive: 1.32; GGAUAGCUAUGAACGUAGCTT against AI595366: inactive: 0.706; GGAUAGAAAAUCUGUGUUUTT against Rnf33: inactive: 0.507.
CCUACUACCAGGAUGAACATT against Men1: the z-score is inactive: 0.8.
Next, GGAAGGAGUAUAUUAAUGCTT against Stx18: inactive: 0.697; GUUUUGUUUCAGAGCACAATT against Olfr898: inactive: 1.12; GCCAGACUAAGCUUAAGACTT against Clca2: inactive: 0.778.
GGUCAAAUAAAACAGAAGATT against Denr: the z-score is inactive: 0.33.
As for “CGUGGAGAUCAUCCACUCATT against 2610204M08Rik”, the z-score is inactive: -1.96.
GGUAAAAGCGAUUUGGACUTT against Gsc: the z-score is inactive: 0.129.
Next, GGUUAACGAGCACAUUACCTT against Lmod2: inactive: -1.11.
Next, GGCCAUCAGUAUCAGCAAATT against Hip1r: inactive: 2.86.
As to GCGAUACAUAUGUGAGUUUTT against Clecsf1, the z-score is inactive: 0.0491.
To GCUGGAGACGUAUUUGUCCTT against Olfr294 belongs inactive: 0.773; to “CCGGAAAUAAAGGCGGAGUTT against 2410026K10Rik”, inactive: 1.
To GCCUCAUGUACGGACACAATT against Mpp4 belongs inactive: 0.0646; to “GGAAAUACCCUGAUAGCCATT against 9430077C05Rik”, inactive: -1.23; to GGGUAUCAUGGGAAACAGATT against Atp12a, inactive: -0.65.
To GGUUCCAUUCCCUCACAAUTT against Bcl9 belongs inactive: 0.402; to GGGAAAUCAAGAUCAUUUCTT against Olfr1294, inactive: 1.18; to GGAGUGUUAAGAUUUGGAATT against Chpt1, inactive: 0.769.
Take “GCUUUUUAUAUGUGCGCAGTT against 6430544H17Rik”: the z-score was inactive: 3.1.
With GGUGUGGACUGUCAUCUCUTT against Olfr139, the z-score is inactive: 0.226.
Consider “GGGUUUCUGACACAUUUCUTT against 6720456H20Rik”, for which the z-score was inactive: -0.988.
Next, GCCACCUCAAUGAAAGGAGTT against Slc23a1: inactive: 0.609.
To GGAAAUCAGACUGCUCAAGTT against Nek3 belongs inactive: -1.35.
For GGACAGGUGUCGAUCAAACTT against Suhw3, the z-score was inactive: 0.897.
Next, CCAGAUCAGAUCCAGUACATT against Gja7: inactive: 0.564.
To GGGAUAGAGAAGAAGAAAATT against Dguok belongs inactive: 0.0563; to “GGCAGAGGUUGAAAGACUUTT against 6720467C03Rik”, inactive: 0.232; to GGCGAUGUGAAAAUCUUAATT against Xpnpep2, inactive: -0.52.
